# Laboratory results taken from publication PMC8626469, “Helicobacter pylori FabX contains a [4Fe-4S] cluster essential for unsaturated fatty acid synthesis” (Nature Communications, 2021).
# These are yes or no findings as the source states them, for the method shown. For part of these data: Binding calls can cover weak binding; strength is not graded here.
# B1: Helicobacter pylori holo-acyl carrier protein (protein, UniProt P56464 1-78)
# chain: MALFEDIQAVIAEQLNVDAVQVTPEAEFVKDLGADSLDVVELIMALEEKFGVEIPDEQAEKIINVGDVVKYIEDNKLA
# modifications: phosphopantetheine group (PPant) on Ser36
# What was measured:
# [1] = molecular target: Helicobacter pylori FabX (H. pylori); assay: ITC; FabX or FabX R164A in the cell, holo-ACP in the syringe (1:10); 10 °C; 20 mM HEPES pH 8.0, 150 mM NaCl, 1 mM TCEP; both purified
# [2] = molecular target: Helicobacter pylori FabX R164A (H. pylori); assay: as above
# [3] = molecular target: Helicobacter pylori FabX (H. pylori); assay: crystal structure; FabX-holo-ACP complex (mixed 1:1.2, purified on Superdex75), crystallised at 292 K in 0.1 M HEPES pH 7.0, 20% PEG 8000; space group P2(1), 2.8 Å; both purified
binder,measurement,setting,value
B1,binding,[1],binds
same,binding,[2],no binding
same,binding,[3],binds
